# According to the supplement of paper PMC4604168 (melanoma cell lines):
# The other results are listed elsewhere or left out. Repeats are few or missing, and single values can be far off.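 Cells were imaged in 1,536-well plates, and nuclei stained with an antibody against cleaved PARP were counted against all DNA-stained nuclei to give the apoptosis fraction. Screening doses were chosen to leave most cells alive, and resting and induced cleaved-PARP levels differ strongly between cell lines.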
# Test system: C32
# Assay: cleaved PARP positive nuclei fraction relative to DMSO control; melanoma cells; higher = more apoptosis
# Details: library dose: low library concentration; 72 h
row,Structure (SMILES),cleaved PARP positive nuclei fraction [%]
1,"Cc1cc(Nc2cc(N3CCN(C)CC3)nc(Sc3ccc(NC(=O)C4CC4)cc3)n2)n[nH]1 [Tozasertib] + Cc1ccc(NC(=O)c2cccc(N(C)C)c2)cc1NC(=O)c1ccc(O)cc1 [ZM336372] (first compound 0.006 µM, partner dose 2 µM)",203
2,"CC[C@]1(O)C[C@H]2CN(CCc3c([nH]c4ccccc34)[C@@](C(=O)OC)(c3cc4c(cc3OC)N(C=O)[C@H]3[C@@](O)(C(=O)OC)[C@H](OC(C)=O)[C@]5(CC)C=CCN6CC[C@]43[C@@H]65)C2)C1 [vincristine] + CC1(C)NC(=O)N(c2ccc([N+](=O)[O-])c(C(F)(F)F)c2)C1=O [nilutamide] (first compound 0.0001 µM, partner dose 1 µM)",608
3,"N#CC[C@H](C1CCCC1)n1cc(-c2ncnc3[nH]ccc23)cn1 [ruxolitinib] + CO[C@@H]1[C@H](N(C)C(=O)c2ccccc2)C[C@H]2O[C@]1(C)n1c3ccccc3c3c4c(c5c6ccccc6n2c5c31)C(=O)NC4 [Midostaurin] (first compound 1 µM, partner dose 0.08 µM)",70.1
4,"CCCCCCCCCCCCCCCCCCOP(=O)([O-])OC1CC[N+](C)(C)CC1 [Perifosine] + COc1cc2c(Oc3ccc4[nH]c(C)cc4c3F)ncnc2cc1OCCCN1CCCC1 [cediranib] (first compound 0.4 µM, partner dose 0.4 µM)",47.5
5,"N#CC[C@H](C1CCCC1)n1cc(-c2ncnc3[nH]ccc23)cn1 [ruxolitinib] + COc1cc2c(Oc3ccc4[nH]c(C)cc4c3F)ncnc2cc1OCCCN1CCCC1 [cediranib] (first compound 1 µM, partner dose 0.4 µM)",65.6
6,"O=C(/C=C/c1cccnc1)NCCCCC1CCN(C(=O)c2ccccc2)CC1 + O=C(O)c1ccc(-c2c[nH]c3ncc(-c4ccccc4)cc23)cc1C1CCCC1 [GSK650394] (first compound 0.01 µM, partner dose 0.16 µM)",101
7,"Cc1cc(Nc2cc(N3CCN(C)CC3)nc(Sc3ccc(NC(=O)C4CC4)cc3)n2)n[nH]1 [Tozasertib] + NCC(=O)Nc1ccc(-n2nc(C(F)(F)F)cc2-c2ccc3c(ccc4ccccc43)c2)cc1 [OSU03012] (first compound 0.006 µM, partner dose 1 µM)",116
8,"Cc1cn(-c2cc(NC(=O)c3ccc(C)c(Nc4nccc(-c5cccnc5)n4)c3)cc(C(F)(F)F)c2)cn1 [nilotinib] + CO[C@@H]1[C@H](N(C)C(=O)c2ccccc2)C[C@H]2O[C@]1(C)n1c3ccccc3c3c4c(c5c6ccccc6n2c5c31)C(=O)NC4 [Midostaurin] (first compound 0.2 µM, partner dose 0.08 µM)",239
9,"Cc1ccc(Nc2nccc(N(C)c3ccc4c(C)n(C)nc4c3)n2)cc1S(N)(=O)=O [Pazopanib] + CN(NC(=O)CC(=O)NN(C)C(=S)c1ccccc1)C(=S)c1ccccc1 [STA4783] (first compound 0.4 µM, partner dose 0.006 µM)",63.2
10,"COc1cc([C@@H]2c3cc4c(cc3[C@@H](O[C@@H]3O[C@@H]5CO[C@@H](C)O[C@H]5[C@H](O)[C@H]3O)[C@H]3COC(=O)[C@H]23)OCO4)cc(OC)c1O [etoposide] + Cc1ccc(NC(=O)c2cccc(N(C)C)c2)cc1NC(=O)c1ccc(O)cc1 [ZM336372] (first compound 0.02 µM, partner dose 2 µM)",53.6
11,"O=C(/C=C/c1cccnc1)NCCCCC1CCN(C(=O)c2ccccc2)CC1 + CN(NC(=O)CC(=O)NN(C)C(=S)c1ccccc1)C(=S)c1ccccc1 [STA4783] (first compound 0.01 µM, partner dose 0.006 µM)",189

# Reprinted at random: two records from the list
row,Structure (SMILES),cleaved PARP positive nuclei fraction [%]
7,"Cc1cc(Nc2cc(N3CCN(C)CC3)nc(Sc3ccc(NC(=O)C4CC4)cc3)n2)n[nH]1 [Tozasertib] + NCC(=O)Nc1ccc(-n2nc(C(F)(F)F)cc2-c2ccc3c(ccc4ccccc43)c2)cc1 [OSU03012] (first compound 0.006 µM, partner dose 1 µM)",116
6,"O=C(/C=C/c1cccnc1)NCCCCC1CCN(C(=O)c2ccccc2)CC1 + O=C(O)c1ccc(-c2c[nH]c3ncc(-c4ccccc4)cc23)cc1C1CCCC1 [GSK650394] (first compound 0.01 µM, partner dose 0.16 µM)",101
